Results are given in words; binding and its absence hold for the method and conditions named. In cells and extracts the contact can be indirect. Binding calls can cover weak binding; strength is not graded here.
Target: Cep152 full-length FL(1–1654) (human)
Test: co-IP; transfected HEK293 cells lysed in TBSN buffer [20 mM Tris-HCl (pH 8.0), 150 mM NaCl, 0.5% Nonidet P-40, 5 mM EGTA, 1.5 mM EDTA]; IP with anti-FLAG or anti-GFP antibody and protein A/G-agarose; immunoblotting

B1: Plk4, expressed in HEK293 cells (enzyme, UniProt O00444 1-970)
chain: MATCIGEKIEDFKVGNLLGKGSFAGVYRAESIHTGLEVAIKMIDKKAMYKAGMVQRVQNEVKIHCQLKHPSILELYNYFEDSNYVYLVLEMCHNGEMNRYLKNRVKPFSENEARHFMHQIITGMLYLHSHGILHRDLTLSNLLLTRNMNIKIADFGLATQLKMPHEKHYTLCGTPNYISPEIATRSAHGLESDVWSLGCMFYTLLIGRPPFDTDTVKNTLNKVVLADYEMPSFLSIEAKDLIHQLLRRNPADRLSLSSVLDHPFMSRNSSTKSKDLGTVEDSIDSGHATISTAITASSSTSISGSLFDKRRLLIGQPLPNKMTVFPKNKSSTDFSSSGDGNSFYTQWGNQETSNSGRGRVIQDAEERPHSRYLRRAYSSDRSGTSNSQSQAKTYTMERCHSAEMLSVSKRSGGGENEERYSPTDNNANIFNFFKEKTSSSSGSFERPDNNQALSNHLCPGKTPFPFADPTPQTETVQQWFGNLQINAHLRKTTEYDSISPNRDFQGHPDLQKDTSKNAWTDTKVKKNSDASDNAHSVKQQNTMKYMTALHSKPEIIQQECVFGSDPLSEQSKTRGMEPPWGYQNRTLRSITSPLVAHRLKPIRQKTKKAVVSILDSEEVCVELVKEYASQEYVKEVLQISSDGNTITIYYPNGGRGFPLADRPPSPTDNISRYSFDNLPEKYWRKYQYASRFVQLVRSKSPKITYFTRYAKCILMENSPGADFEVWFYDGVKIHKTEDFIQVIEKTGKSYTLKSESEVNSLKEEIKMYMDHANEGHRICLALESIISEEERKTRSAPFFPIIIGRKPGSTSSPKALSPPPSVDSNYPTRERASFNRMVMHSAASPTQAPILNPSMVTNEGLGLTTTASGTDISSNSLKDCLPKSAQLLKSVFVKNVGWATQLTSGAVWVQFNDGSQLVVQAGVSSISYTSPNGQTTRYGENEKLPDYIKQKLQCLSSILLMFSNPTPNFH
binding: binds
